Laboratory results taken from patent EP0646792A1, “Use of amylin in pharmaceutical screens” (ELI LILLY AND COMPANY, priority 1993, dated 1995).
At least one peptide structure holds a part that was inferred or is arguable (an end, a ring closure or a residue).

System: rat hippocampal cultures
Assay: Neurodegeneration in primary rat hippocampal cultures, assessed visually by phase contrast microscopy
Type: cell-based

CC(C)C[C@H](NC(=O)[C@H](CC(N)=O)NC(=O)[C@H](CC(N)=O)NC(=O)[C@H](CO)NC(=O)[C@H](CO)NC(=O)[C@H](CCCNC(=N)N)NC(=O)[C@@H](NC(=O)[C@H](CC(C)C)NC(=O)[C@H](Cc1ccccc1)NC(=O)[C@H](CC(N)=O)NC(=O)[C@H](C)NC(=O)[C@H](CC(C)C)NC(=O)[C@H](CCCNC(=N)N)NC(=O)[C@H](CCC(N)=O)NC(=O)[C@@H](NC(=O)[C@H](C)NC(=O)[C@@H]1CSSC[C@H](NC(=O)[C@@H](N)CCCCN)C(=O)N[C@@H](CC(N)=O)C(=O)N[C@@H]([C@@H](C)O)C(=O)N[C@@H](C)C(=O)N[C@@H]([C@@H](C)O)C(=O)N1)[C@@H](C)O)C(C)C)C(=O)NCC(=O)N1CCC[C@H]1C(=O)N[C@H](C(=O)N[C@@H](CC(C)C)C(=O)N1CCC[C@H]1C(=O)N1CCC[C@H]1C(=O)N[C@H](C(=O)N[C@@H](CC(N)=O)C(=O)N[C@H](C(=O)NCC(=O)N[C@@H](CO)C(=O)N[C@@H](CC(N)=O)C(=O)N[C@H](C(=O)N[C@@H](Cc1ccc(O)cc1)C(N)=O)[C@@H](C)O)C(C)C)[C@@H](C)O)C(C)C [rat amylin]
neurodegeneration, peptide from other or several sources (cultured rat hippocampal neurons, human amylin from Bachem, Peninsula and in-house, rat amylin from Peninsula Laboratories): non-toxic
neurodegeneration (phase-contrast microscopy) (mature, high density rat hippocampal cultures, 50 µM peptide, 4 days (Fig. 2)): indistinguishable from vehicle-treated (H₂O) control wells
